In article PMC7529893, “Structural basis for substrate recognition and chemical inhibition of oncogenic MAGE ubiquitin ligases” (Nature Communications, 2020) one finds binding data, which are given here for 2 substances.

Chains of the proteins cited; added tags and fusions are not shown. Lines headed by an entry give the natural chain unless they say otherwise; changes in a name come on top.
UniProt P43364: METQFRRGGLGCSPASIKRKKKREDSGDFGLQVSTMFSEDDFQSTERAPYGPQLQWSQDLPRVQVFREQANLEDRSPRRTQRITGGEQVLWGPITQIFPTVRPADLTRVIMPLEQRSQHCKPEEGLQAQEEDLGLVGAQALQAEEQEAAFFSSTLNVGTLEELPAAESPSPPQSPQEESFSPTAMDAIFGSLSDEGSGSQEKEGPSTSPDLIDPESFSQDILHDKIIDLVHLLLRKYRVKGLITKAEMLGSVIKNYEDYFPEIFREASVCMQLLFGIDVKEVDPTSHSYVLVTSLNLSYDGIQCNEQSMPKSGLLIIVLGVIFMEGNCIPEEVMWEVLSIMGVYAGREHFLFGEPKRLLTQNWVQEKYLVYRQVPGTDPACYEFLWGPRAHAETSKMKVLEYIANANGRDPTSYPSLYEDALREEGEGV

Results are given in words; binding and its absence hold for the method and conditions named. In cells and extracts the contact can be indirect. A result given as binding can be weak or reduced; the word gives no strength. Where a sequence is shown, tags or fusion partners need not be part of it.

The test addresses T1, GST-PCF11 (human PCF11 amino acid 637-702) (human) (UniProt O94913).
T1 sequence: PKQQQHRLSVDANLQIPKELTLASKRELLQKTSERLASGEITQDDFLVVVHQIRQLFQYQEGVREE
The test can be described thus: pull-down; purified GST-tagged protein on glutathione Sepharose beads, in vitro translated Myc-tagged protein (rabbit reticulocyte lysate) added; 25 mM Tris pH 8.0, 2.7 mM KCl, 137 mM NaCl, 0.05% Tween-20, 10 mM 2-mercaptoethanol, 5% milk powder; immunoblot anti-Myc; only the target purified. For orientation: In western blotting, separated proteins are transferred to a membrane and probed.

Take “Myc-MAGE-A11 H231 mutant (in vitro translated) (from UniProt P43364)”: the binding entry was “binds”.

Regarding “Myc-MAGE-A11 N-terminal fragment (human) (domain or fragment)”, the binding entry was “no binding”.
